SMILES strings stand for the structures. Some of the results follow. Single values are uncertain, as repeats are few or missing.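 Cells were imaged in 1,536-well plates, and nuclei stained with an antibody against cleaved PARP were counted against all DNA-stained nuclei to give the apoptosis fraction. Screening doses were chosen to leave most cells alive, and resting and induced cleaved-PARP levels differ strongly between cell lines.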

The subject of the test is A101D. Kind of test: cleaved PARP positive nuclei fraction relative to DMSO control; melanoma cells; higher = more apoptosis. To be noted: library dose: low library concentration; 72 h.
In the case of `C[C@]1(O)C[C@@H](c2nc(-c3ccc4ccc(-c5ccccc5)nc4c3)c3c(N)nccn32)C1` + O=C(O)C(=O)Nc1sc2c(c1C(=O)O)CCNC2 [TCS401] (first compound 0.4 µM, partner dose 1.66667 µM), the “cleaved PARP positive nuclei fraction” value amounted to 18.7%.
For the compound `CCN(CC)CCNC(=O)c1c(C)[nH]c(/C=C2\C(=O)Nc3ccc(F)cc32)c1C` [sunitinib] + c1cc(-c2cnn3cc(-c4ccc(OCCN5CCCCC5)cc4)cnc23)ccn1 [Dorsomorphin] (first compound 0.4 µM, partner dose 0.4 µM), the “cleaved PARP positive nuclei fraction” value is 47.1%.
With `CC1(C)CCC(c2ccc(Cl)cc2)=C(CN2CCN(c3ccc(C(=O)NS(=O)(=O)c4ccc(N[C@H](CCN5CCOCC5)CSc5ccccc5)c(S(=O)(=O)C(F)(F)F)c4)cc3)CC2)C1` + COc1cc(N2CCC(N3CCN(C)CC3)CC2)ccc1Nc1ncc(Cl)c(Nc2ccccc2S(=O)(=O)C(C)C)n1 [NVP-TAE684] (first compound 0.4 µM, partner dose 0.08 µM), the “cleaved PARP positive nuclei fraction” value was found to be 71.2%.
Consider `Cn1sc(=O)n(Cc2ccccc2)c1=O` + CCN(CC)CCCCNc1ncc2cc(-c3cc(OC)cc(OC)c3)c(NC(=O)NC(C)(C)C)nc2n1 [PD173074] (first compound 0.4 µM, partner dose 0.1 µM), for which the “cleaved PARP positive nuclei fraction” value was 43%.
Take `CCN(CC)CCNC(=O)c1c(C)[nH]c(/C=C2\C(=O)Nc3ccc(F)cc32)c1C` [sunitinib] + CCCCCCCCCCCC1=C(O)C(=O)C=C(O)C1=O [Embelin] (first compound 0.4 µM, partner dose 1.2 µM): the “cleaved PARP positive nuclei fraction” value came to 49.6%.

The record behind these values is the supplement of paper PMC4604168 (melanoma cell lines).
